Test results as given in paper PMC6180346, “Two Faces of CwlM, an Essential PknB Substrate, in Mycobacterium tuberculosis” (Cell Reports, 2018).
Results are given in words; binding and its absence hold for the method and conditions named. Binding seen in cells or lysates may run through a third protein. These calls come from enrichment with a bait or labelling near it, and not all partners need be listed.

The chains behind the UniProt entries cited, without tags or fusion partners.
UniProt L7N653: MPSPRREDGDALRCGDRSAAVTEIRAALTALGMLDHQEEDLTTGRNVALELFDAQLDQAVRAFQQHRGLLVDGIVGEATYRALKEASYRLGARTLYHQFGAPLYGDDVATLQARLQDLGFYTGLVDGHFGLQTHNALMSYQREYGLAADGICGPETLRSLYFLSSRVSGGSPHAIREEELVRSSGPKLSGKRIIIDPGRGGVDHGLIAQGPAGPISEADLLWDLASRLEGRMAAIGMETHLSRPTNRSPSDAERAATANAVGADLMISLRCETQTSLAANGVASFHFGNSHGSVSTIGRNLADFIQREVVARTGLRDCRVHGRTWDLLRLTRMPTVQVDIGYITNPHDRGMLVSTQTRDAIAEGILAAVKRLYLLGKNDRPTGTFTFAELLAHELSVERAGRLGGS

Molecular target: CwlM, endogenous, membrane fraction of M. tuberculosis (non-phosphorylated form) (M. tuberculosis (endogenous in M. tuberculosis)) (UniProt L7N653)
Test: affinity purification with mass spectrometry

B1: MurJ, endogenous (protein, UniProt P9WJK3 1-1184)
chain: MRPSPGEVPTASQRQPELSDAALVSHSWAMAFATLISRITGFARIVLLAAILGAALASSFSVANQLPNLVAALVLEATFTAIFVPVLARAEQDDPDGGAAFVRRLVTLATTLLLGATTLSVLAAPLLVRLMLGTNPQVNEPLTTAFAYLLLPQVLVYGLSSVFMAILNTRNVFGPPAWAPVVNNVVAIATLAVYLAVPGELSVDPVRMGNAKLLVLGIGTTAGVFAQTAVLLVAIRREHISLRPLWGIDQRLKRFGAMAAAMVLYVLISQLGLVVGNRIASTAAASGPAIYNYTWLVLMLPFGMIGVTVLTVVMPRLSRNAAADDTPAVLADLSLATRLTMITLIPTVAFMTVGGPAIGSALFAYGNFGDVDAGYLGAAIALSAFTLIPYALVLLQLRVFYAREQPWTPITIIVVITGVKILGSLLAPHITGDPQLVAAYLGLANGLGFLAGTIVGYYILRRALRPDGGQLIGVGEARTVLVTVAASLLAGLLAHVADRLLGLSELTAHAGSVGSLLRLSVLALIMLPILAAVTLCARVPEARAALDAVRARIRSRRLKTGPQTQNVLDQSSRPGPVTYPERRRLAPPRGKSVVHEPIRRRPPEQVARAGRAKGPEVIDRPSENASFGAASGAELPRPVADELQLDAPAGRDPGPVSRPHPSDLQNGDLPADAARGPIAFDALREPDRESSAPPDDVQLVPGARIANGRYRLLIFHGGVPPLQFWQALDTALDRQVALTFVDPQGVLPDDVLQETLSRTLRLSRIDKPGVARVLDVVHTRAGGLVVAEWIRGGSLQEVADTSPSPVGAIRAMQSLAAAADAAHRAGVALSIDHPSRVRVSIDGDVVLAYPATMPDANPQDDIRGIGASLYALLVNRWPLPEAGVRSGLAPAERDTAGQPIEPADIDRDIPFQISAVAARSVQGDGGIRSASTLLNLMQQATAVADRTEVLGPIDEAPVSAAPRTSAPNSETYTRRRRNLLIGIGAGAAVLMVALLVLASVLSRIFGDVSGGLNKDELGLNAPTASTSAASSAPPGSVVKPTKVTVFSPDGGADNPGEADLAIDGNPATSWKTDIYTDPVPFPSFKNGVGLMLQLPQATVVGTVAIDVASTGTKVEIRSASTPTPATLEDTAVLTSATALRPGHNTISVEAAAPTSNLLVWISTLGTTDGKSQADISEITIYAAS
binding: binds

B2: CwsA, endogenous (protein, UniProt P9WJF3 1-145)
chain: MSEQVETRLTPRERLTRGLAYSAVGPVDVTRGLLELGVGLGLQSARSTAAGLRRRYREGRLAREVAAAQETLAQELTAAQDVVANLPQALQDARTQRRSKHHLWIFAGIAAAILAGGAVAFSIVRRSSRPEPSPRPPSVEVQPRS
binding: binds
